Experimental data reported in the supplement of paper PMC10849652.
The other results are listed elsewhere or left out. Residues, ends and D or L forms follow the SMILES beside them. *: point of attachment. Cbz = O=C(OCc1ccccc1)*

Sequences of proteins named here, by UniProt entry; tags and fusion partners are left off. A change or cut given only in a name is not applied to a line headed by its entry.
UniProt Q92841: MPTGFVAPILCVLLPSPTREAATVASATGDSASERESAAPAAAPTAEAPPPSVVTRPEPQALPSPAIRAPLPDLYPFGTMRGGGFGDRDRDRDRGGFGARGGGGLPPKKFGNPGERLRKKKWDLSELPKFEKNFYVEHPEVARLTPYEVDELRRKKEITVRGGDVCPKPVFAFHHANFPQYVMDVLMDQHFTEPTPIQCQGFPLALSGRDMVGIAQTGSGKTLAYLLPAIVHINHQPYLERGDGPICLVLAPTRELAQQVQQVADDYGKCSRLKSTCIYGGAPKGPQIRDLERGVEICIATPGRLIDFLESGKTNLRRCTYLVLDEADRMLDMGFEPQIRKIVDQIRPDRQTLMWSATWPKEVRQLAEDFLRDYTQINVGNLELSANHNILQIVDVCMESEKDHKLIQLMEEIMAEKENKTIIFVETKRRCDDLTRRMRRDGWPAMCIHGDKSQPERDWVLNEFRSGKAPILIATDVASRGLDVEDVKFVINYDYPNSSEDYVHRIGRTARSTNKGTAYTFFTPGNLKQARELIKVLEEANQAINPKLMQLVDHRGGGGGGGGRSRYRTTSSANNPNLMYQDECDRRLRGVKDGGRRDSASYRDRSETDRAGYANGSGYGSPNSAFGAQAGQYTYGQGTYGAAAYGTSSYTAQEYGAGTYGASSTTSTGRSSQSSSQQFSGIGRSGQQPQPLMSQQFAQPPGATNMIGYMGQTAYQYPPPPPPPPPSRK
UniProt Q16698: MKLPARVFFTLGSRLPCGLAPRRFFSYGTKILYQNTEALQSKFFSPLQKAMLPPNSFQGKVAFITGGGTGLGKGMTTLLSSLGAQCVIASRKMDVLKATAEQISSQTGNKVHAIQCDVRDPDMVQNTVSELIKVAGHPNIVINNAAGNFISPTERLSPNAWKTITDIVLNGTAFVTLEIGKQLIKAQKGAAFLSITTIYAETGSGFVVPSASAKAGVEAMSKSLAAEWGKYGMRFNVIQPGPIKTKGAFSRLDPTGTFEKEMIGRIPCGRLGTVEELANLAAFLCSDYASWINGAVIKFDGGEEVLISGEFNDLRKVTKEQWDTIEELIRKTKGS
UniProt O95865: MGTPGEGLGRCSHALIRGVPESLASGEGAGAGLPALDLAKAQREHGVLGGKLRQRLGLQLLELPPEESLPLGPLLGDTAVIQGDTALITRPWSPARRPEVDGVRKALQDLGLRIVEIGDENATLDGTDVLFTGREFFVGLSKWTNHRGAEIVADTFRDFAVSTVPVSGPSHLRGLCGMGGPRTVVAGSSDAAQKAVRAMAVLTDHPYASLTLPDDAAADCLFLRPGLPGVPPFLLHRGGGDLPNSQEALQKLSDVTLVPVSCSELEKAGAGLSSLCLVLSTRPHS
UniProt Q08495: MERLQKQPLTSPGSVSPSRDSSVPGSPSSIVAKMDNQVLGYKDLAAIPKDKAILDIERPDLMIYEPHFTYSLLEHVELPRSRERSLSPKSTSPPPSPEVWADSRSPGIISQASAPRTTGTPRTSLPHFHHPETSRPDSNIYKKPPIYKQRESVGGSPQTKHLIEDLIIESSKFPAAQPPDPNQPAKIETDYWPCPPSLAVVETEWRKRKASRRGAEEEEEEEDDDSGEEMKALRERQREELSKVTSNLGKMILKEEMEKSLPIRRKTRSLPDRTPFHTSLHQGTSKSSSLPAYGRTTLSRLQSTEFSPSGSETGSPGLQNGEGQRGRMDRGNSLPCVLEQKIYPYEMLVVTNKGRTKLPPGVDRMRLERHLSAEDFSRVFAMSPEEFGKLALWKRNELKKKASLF
UniProt Q13268: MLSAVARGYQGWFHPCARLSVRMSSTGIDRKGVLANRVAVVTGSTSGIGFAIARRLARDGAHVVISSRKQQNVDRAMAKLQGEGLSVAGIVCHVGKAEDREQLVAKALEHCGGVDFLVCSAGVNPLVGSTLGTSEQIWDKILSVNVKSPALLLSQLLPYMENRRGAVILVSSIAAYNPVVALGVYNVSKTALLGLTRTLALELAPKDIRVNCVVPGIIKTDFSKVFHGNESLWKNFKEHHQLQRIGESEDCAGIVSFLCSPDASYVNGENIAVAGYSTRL
UniProt Q7Z478: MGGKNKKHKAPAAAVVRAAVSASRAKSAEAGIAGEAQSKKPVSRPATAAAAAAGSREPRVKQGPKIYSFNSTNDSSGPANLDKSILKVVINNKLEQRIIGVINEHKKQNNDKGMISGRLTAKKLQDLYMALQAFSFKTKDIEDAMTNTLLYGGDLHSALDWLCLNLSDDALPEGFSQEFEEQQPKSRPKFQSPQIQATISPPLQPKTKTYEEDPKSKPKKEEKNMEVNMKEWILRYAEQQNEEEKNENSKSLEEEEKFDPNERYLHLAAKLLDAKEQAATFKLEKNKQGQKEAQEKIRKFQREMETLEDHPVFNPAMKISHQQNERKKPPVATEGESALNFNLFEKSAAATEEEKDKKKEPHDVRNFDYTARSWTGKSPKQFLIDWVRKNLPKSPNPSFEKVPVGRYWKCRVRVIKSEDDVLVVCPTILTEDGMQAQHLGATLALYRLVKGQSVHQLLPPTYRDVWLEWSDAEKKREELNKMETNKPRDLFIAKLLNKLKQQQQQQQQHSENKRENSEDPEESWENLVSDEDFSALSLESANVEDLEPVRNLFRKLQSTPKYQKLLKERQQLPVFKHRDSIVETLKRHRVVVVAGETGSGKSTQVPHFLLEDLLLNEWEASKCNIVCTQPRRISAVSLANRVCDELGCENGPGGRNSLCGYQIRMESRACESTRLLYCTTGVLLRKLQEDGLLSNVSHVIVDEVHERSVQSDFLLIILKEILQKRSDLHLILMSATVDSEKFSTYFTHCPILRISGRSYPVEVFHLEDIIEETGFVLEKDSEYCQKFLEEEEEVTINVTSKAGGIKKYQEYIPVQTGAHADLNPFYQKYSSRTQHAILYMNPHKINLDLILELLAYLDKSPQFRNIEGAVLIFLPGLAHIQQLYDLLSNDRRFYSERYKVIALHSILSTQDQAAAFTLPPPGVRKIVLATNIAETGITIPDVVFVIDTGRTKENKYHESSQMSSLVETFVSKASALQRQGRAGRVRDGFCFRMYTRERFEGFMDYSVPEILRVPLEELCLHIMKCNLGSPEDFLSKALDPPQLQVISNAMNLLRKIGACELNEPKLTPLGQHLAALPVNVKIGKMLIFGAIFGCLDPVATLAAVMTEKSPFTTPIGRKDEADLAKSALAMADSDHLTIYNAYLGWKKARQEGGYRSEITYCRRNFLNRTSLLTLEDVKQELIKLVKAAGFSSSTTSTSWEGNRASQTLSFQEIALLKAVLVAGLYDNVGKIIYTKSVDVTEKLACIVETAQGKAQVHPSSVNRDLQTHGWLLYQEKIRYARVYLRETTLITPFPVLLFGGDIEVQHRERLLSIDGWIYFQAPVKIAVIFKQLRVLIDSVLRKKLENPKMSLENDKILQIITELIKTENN
UniProt O00273: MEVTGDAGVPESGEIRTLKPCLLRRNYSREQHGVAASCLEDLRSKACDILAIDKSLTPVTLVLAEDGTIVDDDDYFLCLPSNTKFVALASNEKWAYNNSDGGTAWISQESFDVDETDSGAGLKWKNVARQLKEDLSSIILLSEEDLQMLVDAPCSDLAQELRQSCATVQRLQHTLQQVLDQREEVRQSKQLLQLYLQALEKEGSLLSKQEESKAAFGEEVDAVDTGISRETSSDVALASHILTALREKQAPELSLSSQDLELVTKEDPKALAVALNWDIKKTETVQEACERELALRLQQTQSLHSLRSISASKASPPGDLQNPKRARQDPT
UniProt Q9NR28: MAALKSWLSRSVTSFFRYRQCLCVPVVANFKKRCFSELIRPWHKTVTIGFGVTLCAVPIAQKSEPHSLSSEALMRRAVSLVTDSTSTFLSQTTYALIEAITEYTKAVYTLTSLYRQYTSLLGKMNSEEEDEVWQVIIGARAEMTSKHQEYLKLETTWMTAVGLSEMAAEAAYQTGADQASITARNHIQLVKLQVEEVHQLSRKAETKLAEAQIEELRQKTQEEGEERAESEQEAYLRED
UniProt Q9UMR2: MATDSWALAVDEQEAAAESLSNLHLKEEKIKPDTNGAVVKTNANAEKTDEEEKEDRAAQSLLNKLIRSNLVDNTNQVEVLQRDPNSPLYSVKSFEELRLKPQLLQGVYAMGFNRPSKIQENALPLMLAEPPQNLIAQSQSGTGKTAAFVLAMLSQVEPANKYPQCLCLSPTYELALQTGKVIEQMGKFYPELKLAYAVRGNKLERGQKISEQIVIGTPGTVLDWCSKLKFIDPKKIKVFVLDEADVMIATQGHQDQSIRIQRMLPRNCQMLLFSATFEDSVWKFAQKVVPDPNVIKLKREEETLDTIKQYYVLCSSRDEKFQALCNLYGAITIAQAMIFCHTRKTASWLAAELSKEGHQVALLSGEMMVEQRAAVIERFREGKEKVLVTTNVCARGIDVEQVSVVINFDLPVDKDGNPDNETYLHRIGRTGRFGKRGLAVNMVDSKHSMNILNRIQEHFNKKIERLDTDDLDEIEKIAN
UniProt Q9NY93: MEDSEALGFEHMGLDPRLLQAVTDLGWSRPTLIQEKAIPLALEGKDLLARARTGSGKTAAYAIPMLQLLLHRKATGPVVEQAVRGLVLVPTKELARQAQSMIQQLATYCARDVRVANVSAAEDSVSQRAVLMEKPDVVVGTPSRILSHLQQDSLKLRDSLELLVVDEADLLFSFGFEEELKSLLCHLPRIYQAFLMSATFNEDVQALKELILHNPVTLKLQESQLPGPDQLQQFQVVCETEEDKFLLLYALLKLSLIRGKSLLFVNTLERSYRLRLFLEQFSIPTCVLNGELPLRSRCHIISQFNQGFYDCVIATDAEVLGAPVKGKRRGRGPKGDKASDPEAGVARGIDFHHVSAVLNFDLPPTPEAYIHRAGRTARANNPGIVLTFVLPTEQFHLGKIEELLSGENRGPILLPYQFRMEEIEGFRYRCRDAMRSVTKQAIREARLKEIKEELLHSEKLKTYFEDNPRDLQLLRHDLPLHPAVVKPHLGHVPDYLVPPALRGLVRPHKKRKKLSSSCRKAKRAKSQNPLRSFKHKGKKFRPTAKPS
UniProt P35659: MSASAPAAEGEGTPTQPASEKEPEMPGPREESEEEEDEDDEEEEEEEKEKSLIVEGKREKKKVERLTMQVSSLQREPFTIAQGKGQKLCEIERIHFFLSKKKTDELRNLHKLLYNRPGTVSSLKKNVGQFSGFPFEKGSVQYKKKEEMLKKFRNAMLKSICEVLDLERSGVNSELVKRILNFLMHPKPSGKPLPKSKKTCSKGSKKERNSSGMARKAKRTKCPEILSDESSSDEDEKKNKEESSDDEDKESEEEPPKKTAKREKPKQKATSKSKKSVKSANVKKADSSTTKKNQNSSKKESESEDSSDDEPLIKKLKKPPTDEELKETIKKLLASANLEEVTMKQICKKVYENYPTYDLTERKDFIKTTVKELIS
UniProt Q92499: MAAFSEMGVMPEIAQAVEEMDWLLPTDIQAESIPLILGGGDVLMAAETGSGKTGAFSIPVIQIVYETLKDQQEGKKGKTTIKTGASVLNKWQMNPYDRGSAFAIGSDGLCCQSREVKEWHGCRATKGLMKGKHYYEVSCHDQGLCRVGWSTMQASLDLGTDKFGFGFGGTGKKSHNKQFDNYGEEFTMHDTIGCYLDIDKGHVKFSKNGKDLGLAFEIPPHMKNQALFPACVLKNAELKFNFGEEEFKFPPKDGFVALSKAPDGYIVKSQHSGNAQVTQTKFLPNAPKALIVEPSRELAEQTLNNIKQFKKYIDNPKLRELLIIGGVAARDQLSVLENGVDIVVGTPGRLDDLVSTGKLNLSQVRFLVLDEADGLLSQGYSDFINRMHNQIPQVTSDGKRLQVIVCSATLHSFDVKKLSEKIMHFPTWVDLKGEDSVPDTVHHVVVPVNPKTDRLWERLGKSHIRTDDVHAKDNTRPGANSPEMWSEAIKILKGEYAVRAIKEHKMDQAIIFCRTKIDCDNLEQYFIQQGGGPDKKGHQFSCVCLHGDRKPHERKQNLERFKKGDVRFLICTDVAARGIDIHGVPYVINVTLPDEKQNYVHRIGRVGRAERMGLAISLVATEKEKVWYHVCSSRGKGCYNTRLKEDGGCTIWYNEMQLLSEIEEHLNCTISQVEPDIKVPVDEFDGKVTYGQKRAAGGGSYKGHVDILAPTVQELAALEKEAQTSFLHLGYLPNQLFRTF
UniProt P36957: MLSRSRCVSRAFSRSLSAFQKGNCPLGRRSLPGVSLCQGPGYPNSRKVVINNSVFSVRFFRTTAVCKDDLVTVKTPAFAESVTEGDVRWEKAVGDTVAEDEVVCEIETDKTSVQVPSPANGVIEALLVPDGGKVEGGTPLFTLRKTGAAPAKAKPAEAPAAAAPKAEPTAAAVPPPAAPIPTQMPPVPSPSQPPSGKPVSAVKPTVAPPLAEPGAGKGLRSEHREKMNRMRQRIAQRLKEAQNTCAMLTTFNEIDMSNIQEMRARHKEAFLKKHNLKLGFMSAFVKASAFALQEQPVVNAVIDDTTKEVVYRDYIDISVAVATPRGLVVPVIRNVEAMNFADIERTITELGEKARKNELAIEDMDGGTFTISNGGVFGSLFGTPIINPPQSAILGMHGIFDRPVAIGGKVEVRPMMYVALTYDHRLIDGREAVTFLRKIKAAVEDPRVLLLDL

Tests used:
Experiment in all cases: log2 fold change, soluble protein after heating vs DMSO (PISA); higher = thermal stabilisation; K562 cells, 10 uM, 30 min; active = over 0.2 and 3.5 SD of the protein, either way, in both replicates (recomputed)
erlotinib = compound: C#Cc1cccc(Nc2ncnc3cc(OCCOC)c(OCCOC)cc23)c1 [erlotinib]
Summary of the method: (§1)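 K562 cells at 2×10^6 cells/mL were given 10 μM compound for 30 min. Aliquots then went through 3 min of heating across 48°C-58°C, were pooled, and were extracted in PBS with 0.5% NP-40 at 4°C, and the supernatant after 21,000xg for 90 min was quantified by TMTpro 16plex LC-MS/MS with channel sums equalised. Thermal stability relative to control samples, from duplicates, is given as log2 fold change.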

[1] = compound: C/C(=N\NC(=O)C1=CC(=CC=C1)S(=O)(=O)N2CCOCC2)/C3=C(C=CC(=C3)Cl)O
Summary of the method: as §1

[2] = compound: C1=CC(=C(C=C1Cl)C2=NC3=NC=CN=C3C(=N2)NC4=CC=NC=C4)F
Summary of the method: as §1

[3] = compound: C1=CC(=CC=C1C2=NC3=C(N2)C=C(C=C3)C(=O)N)OC4=CC=C(C=C4)Cl
Summary of the method: as §1

[4] = compound: C1=CC2=C(C=CC(=C2)/C=C\3/C(=O)NC(=NCC4=CC=CS4)S3)N=C1
Summary of the method: as §1

[5] = compound: C1=CC2=NC=CN=C2C=C1/C=C/3\C(=O)NC(=O)S3
Summary of the method: as §1

[6] = compound: C1=CC=C(C=C1)C2=NC(=C(N2)C3=CC=NC=C3)C4=CC(=C(C=C4)Cl)O
Summary of the method: as §1

[7] = compound: C1=CC=C2C(=C1)C3=NNC4=CC=CC(=C43)C2=O
Summary of the method: as §1

[8] = compound: C1CCN(C1)C(=O)NC2=CC=CC(=C2)NC3=NC=C(C(=N3)NCCC4=CN=CN4)Br
Summary of the method: as §1

[9] = compound: C1CN(CCC1(CC2=CC=C(C=C2)Cl)N)C3=NC=NC4=C3C=CN4
Summary of the method: as §1

IRAK-1-4 Inhibitor I = compound: C1COCCN1CCN2C3=CC=CC=C3N=C2NC(=O)C4=CC(=CC=C4)[N+](=O)[O-] [IRAK-1-4 Inhibitor I]
Summary of the method: as §1

ibrutinib = compound: C=CC(=O)N1CCC[C@@H](n2nc(-c3ccc(Oc4ccccc4)cc3)c3c(N)ncnc32)C1 [ibrutinib]
Summary of the method: as §1

[10] = compound: CC(=O)c1cnc2ccc(-c3cc(Cl)c(O)c(Cl)c3)nc2c1N[C@H]1CC[C@H](CN(C)C)CC1
Summary of the method: as §1

ralimetinib = compound: CC(C)(C)Cn1c(N)nc2ccc(-c3[nH]c(C(C)(C)C)nc3-c3ccc(F)cc3)nc21 [ralimetinib]
Summary of the method: as §1

[11] = compound: CC(C)(O)CC(=O)NCCn1ccc2ncnc(Nc3ccc(Oc4cccc(C(F)(F)F)c4)c(Cl)c3)c21
Summary of the method: as §1

[12] = compound: CC(C)C1=C2N=C(C=C(N2N=C1)NCC3=CC=CC=C3)NCCCCCCN
Summary of the method: as §1

[13] = compound: CC(C)C[C@@H](C=O)NC(=O)[C@H](CC(C)C)NC(=O)[C@H](CC(C)C)NC(=O)OCc1ccccc1
Summary of the method: as §1

pinometostat = compound: CC(C)N(C[C@H]1O[C@@H](n2cnc3c(N)ncnc32)[C@H](O)[C@@H]1O)[C@H]1C[C@@H](CCc2nc3cc(C(C)(C)C)ccc3[nH]2)C1 [pinometostat]
Summary of the method: as §1

[14] = compound: CC1=C(C(CC(=O)N1)C2=CC=C(C=C2)C(F)(F)F)C(=O)NC3=C(C=C4C(=C3)C=NN4)F
Summary of the method: as §1

[15] = compound: CC1=C(C2=C(C=C1)C(=O)C3=CC=CC=C3N2CCCN)C
Summary of the method: as §1

Measured: log2 fold change

DIP2B (UniProt Q9P265)
inactive: erlotinib -0.013 | [1] 0.052 | [2] 0.032 | [3] 0.006 | [4] 0.005 | [5] 0 | [6] -0.006 | [7] 0.004 | [8] -0.024 | [9] 0.052 | IRAK-1-4 Inhibitor I 0.033 | ibrutinib 0.023 | [10] -0.052 | ralimetinib -0.042 | [11] 0 | [12] 0.067 | [13] -0.036 | pinometostat 0.016 | [14] -0.018 | [15] 0.076

DDX17 (UniProt Q92841)
inactive: erlotinib 0.008 | [1] 0.037 | [2] -0.016 | [3] 0.028 | [4] -0.022 | [5] -0.029 | [6] -0.021 | [7] -0.003 | [8] 0.003 | [9] -0.061 | IRAK-1-4 Inhibitor I -0.114 | ibrutinib -0.003 | [10] -0.089 | ralimetinib -0.01 | [11] -0.082 | [12] -0.095 | [13] 0.047 | pinometostat 0.018 | [14] -0.025 | [15] 0.137

DECR1 (UniProt Q16698)
inactive: erlotinib -0.001 | [1] 0.024 | [2] 0.061 | [3] 0.011 | [4] 0 | [5] 0.016 | [6] 0.003 | [7] 0.022 | [8] -0.035 | [9] 0.034 | IRAK-1-4 Inhibitor I 0.002 | ibrutinib -0.031 | [10] 0.005 | ralimetinib -0.004 | [11] -0.011 | [12] 0.043 | [13] -0.009 | pinometostat -0.042 | [14] -0.007 | [15] 0.012

DDAH2 (UniProt O95865)
inactive: erlotinib 0.022 | [1] 0.015 | [2] 0.015 | [3] 0 | [4] 0.07 | [5] 0.003 | [6] 0.003 | [7] -0.066 | [8] -0.001 | [9] 0.015 | IRAK-1-4 Inhibitor I 0.03 | ibrutinib -0.007 | [10] -0.027 | ralimetinib -0.062 | [11] -0.027 | [12] 0.054 | [13] -0.002 | pinometostat -0.06 | [14] 0.008 | [15] 0.141

DNAH9 (UniProt Q9NYC9)
inactive: erlotinib 0.007 | [1] -0.029 | [2] 0.028 | [3] -0.029 | [4] -0.072 | [5] 0.005 | [6] -0.051 | [7] -0.025 | [8] 0.027 | [9] 0.078 | IRAK-1-4 Inhibitor I -0.011 | ibrutinib -0.012 | [10] 0.032 | ralimetinib -0.078 | [11] -0.017 | [12] 0.067 | [13] -0.028 | pinometostat -0.093 | [14] -0.021 | [15] -0.024

DHX8 (UniProt Q14562)
inactive: erlotinib 0.033 | [1] -0.059 | [2] -0.034 | [3] 0.03 | [4] 0.205 | [5] 0.06 | [6] -0.041 | [7] -0.048 | [8] 0.046 | [9] 0.027 | IRAK-1-4 Inhibitor I -0.043 | ibrutinib -0.046 | [10] 0.051 | ralimetinib -0.03 | [11] 0.004 | [12] 0.03 | [13] 0.124 | pinometostat 0.014 | [14] 0.026 | [15] 0.189

DMTN (UniProt Q08495)
inactive: erlotinib 0.018 | [1] 0 | [2] -0.014 | [3] 0.036 | [4] -0.006 | [5] 0.001 | [6] -0.059 | [7] -0.01 | [8] -0.036 | [9] 0.062 | IRAK-1-4 Inhibitor I 0.009 | ibrutinib 0.008 | [10] -0.025 | ralimetinib 0.02 | [11] -0.029 | [12] 0.062 | [13] 0.009 | pinometostat 0.015 | [14] 0.034 | [15] 0.01

DHRS2 (UniProt Q13268)
inactive: erlotinib -0.031 | [1] 0 | [2] 0.025 | [3] 0.045 | [4] 0.036 | [5] -0.036 | [6] 0.11 | [7] 0.046 | [8] -0.009 | [9] 0.026 | IRAK-1-4 Inhibitor I -0.009 | ibrutinib 0.12 | [10] 0.012 | ralimetinib 0.021 | [11] 0.001 | [12] 0.022 | [13] -0.114 | pinometostat -0.016 | [14] 0.045 | [15] -0.046

DHX29 (UniProt Q7Z478)
inactive: erlotinib 0.002 | [1] -0.029 | [2] -0.296 | [3] 0.054 | [4] -0.066 | [5] 0.018 | [6] -0.095 | [7] -0.016 | [8] 0.015 | [9] -0.096 | IRAK-1-4 Inhibitor I -0.142 | ibrutinib -0.037 | [10] 0.062 | ralimetinib 0.162 | [11] 0.043 | [12] -0.005 | [13] 0.079 | pinometostat 0.14 | [14] -0.026 | [15] 0.064

DFFA (UniProt O00273)
inactive: erlotinib 0.004 | [1] -0.005 | [2] 0.066 | [3] -0.003 | [4] -0.008 | [5] 0.024 | [6] -0.003 | [7] -0.028 | [8] -0.035 | [9] 0.008 | IRAK-1-4 Inhibitor I 0.035 | ibrutinib 0.006 | [10] 0.038 | ralimetinib -0.056 | [11] -0.024 | [12] 0.03 | [13] -0.087 | pinometostat -0.054 | [14] 0.043 | [15] -0.025

DIABLO (UniProt Q9NR28)
inactive: erlotinib 0.045 | [1] -0.039 | [2] 0.1 | [3] 0.015 | [4] -0.027 | [5] 0.011 | [6] -0.089 | [7] 0.038 | [8] 0.026 | [9] 0.063 | IRAK-1-4 Inhibitor I 0.008 | ibrutinib 0.014 | [10] 0.035 | ralimetinib -0.117 | [11] -0.021 | [12] 0.064 | [13] 0.024 | pinometostat -0.059 | [14] 0.016 | [15] -0.042

DDX19B (UniProt Q9UMR2)
inactive: erlotinib 0.063 | [1] 0.077 | [2] 0.041 | [3] -0.056 | [4] 0.038 | [5] 0.022 | [6] 0.076 | [7] 0.033 | [8] -0.026 | [9] 0.061 | IRAK-1-4 Inhibitor I 0.022 | ibrutinib -0.029 | [10] -0.014 | ralimetinib 0.009 | [11] -0.108 | [12] -0.035 | [13] -0.008 | pinometostat -0.012 | [14] -0.008 | [15] 0.016

DDX56 (UniProt Q9NY93)
inactive: erlotinib -0.024 | [1] -0.056 | [2] -0.172 | [3] 0.068 | [4] -0.109 | [5] 0.007 | [6] -0.019 | [7] 0.118 | [8] 0.13 | [9] 0.011 | IRAK-1-4 Inhibitor I -0.093 | ibrutinib -0.099 | [10] 0.113 | ralimetinib 0.131 | [11] -0.102 | [12] -0.01 | [13] 0.116 | pinometostat 0.22 | [14] 0.044 | [15] -0.181

DEK (UniProt P35659)
inactive: erlotinib 0.009 | [1] 0.088 | [2] 0.028 | [3] -0.012 | [4] 0.028 | [5] -0.013 | [6] 0.03 | [7] -0.021 | [8] -0.059 | [9] -0.066 | IRAK-1-4 Inhibitor I -0.056 | ibrutinib -0.004 | [10] -0.097 | ralimetinib 0.048 | [11] -0.1 | [12] -0.128 | [13] 0.032 | pinometostat -0.039 | [14] -0.003 | [15] 0.038

DDX1 (UniProt Q92499)
inactive: erlotinib -0.044 | [1] 0.016 | [2] -0.079 | [3] -0.014 | [4] 0.01 | [5] 0.009 | [6] -0.01 | [7] 0.042 | [8] 0.017 | [9] -0.124 | IRAK-1-4 Inhibitor I -0.105 | ibrutinib -0.05 | [10] 0.08 | ralimetinib 0.107 | [11] 0 | [12] -0.036 | [13] 0.148 | pinometostat 0.195 | [14] -0.064 | [15] -0.022

DLST (UniProt P36957)
inactive: erlotinib -0.066 | [1] -0.088 | [2] -0.029 | [3] -0.023 | [4] -0.058 | [5] 0.007 | [6] -0.013 | [7] 0.011 | [8] 0.03 | [9] 0.004 | IRAK-1-4 Inhibitor I -0.029 | ibrutinib 0.003 | [10] 0.035 | ralimetinib 0.017 | [11] -0.012 | [12] 0.068 | [13] 0.002 | pinometostat -0.014 | [14] 0.063 | [15] -0.019

Two entries drawn at random from those above:
DEK (UniProt P35659)
inactive: erlotinib 0.009 | [1] 0.088 | [2] 0.028 | [3] -0.012 | [4] 0.028 | [5] -0.013 | [6] 0.03 | [7] -0.021 | [8] -0.059 | [9] -0.066 | IRAK-1-4 Inhibitor I -0.056 | ibrutinib -0.004 | [10] -0.097 | ralimetinib 0.048 | [11] -0.1 | [12] -0.128 | [13] 0.032 | pinometostat -0.039 | [14] -0.003 | [15] 0.038

DLST (UniProt P36957)
inactive: erlotinib -0.066 | [1] -0.088 | [2] -0.029 | [3] -0.023 | [4] -0.058 | [5] 0.007 | [6] -0.013 | [7] 0.011 | [8] 0.03 | [9] 0.004 | IRAK-1-4 Inhibitor I -0.029 | ibrutinib 0.003 | [10] 0.035 | ralimetinib 0.017 | [11] -0.012 | [12] 0.068 | [13] 0.002 | pinometostat -0.014 | [14] 0.063 | [15] -0.019
